Data on one molecule can be found in paper PMC11077081.

Sequences of proteins named here, by UniProt entry; tags and fusion partners are left off.
UniProt Q7JJ13: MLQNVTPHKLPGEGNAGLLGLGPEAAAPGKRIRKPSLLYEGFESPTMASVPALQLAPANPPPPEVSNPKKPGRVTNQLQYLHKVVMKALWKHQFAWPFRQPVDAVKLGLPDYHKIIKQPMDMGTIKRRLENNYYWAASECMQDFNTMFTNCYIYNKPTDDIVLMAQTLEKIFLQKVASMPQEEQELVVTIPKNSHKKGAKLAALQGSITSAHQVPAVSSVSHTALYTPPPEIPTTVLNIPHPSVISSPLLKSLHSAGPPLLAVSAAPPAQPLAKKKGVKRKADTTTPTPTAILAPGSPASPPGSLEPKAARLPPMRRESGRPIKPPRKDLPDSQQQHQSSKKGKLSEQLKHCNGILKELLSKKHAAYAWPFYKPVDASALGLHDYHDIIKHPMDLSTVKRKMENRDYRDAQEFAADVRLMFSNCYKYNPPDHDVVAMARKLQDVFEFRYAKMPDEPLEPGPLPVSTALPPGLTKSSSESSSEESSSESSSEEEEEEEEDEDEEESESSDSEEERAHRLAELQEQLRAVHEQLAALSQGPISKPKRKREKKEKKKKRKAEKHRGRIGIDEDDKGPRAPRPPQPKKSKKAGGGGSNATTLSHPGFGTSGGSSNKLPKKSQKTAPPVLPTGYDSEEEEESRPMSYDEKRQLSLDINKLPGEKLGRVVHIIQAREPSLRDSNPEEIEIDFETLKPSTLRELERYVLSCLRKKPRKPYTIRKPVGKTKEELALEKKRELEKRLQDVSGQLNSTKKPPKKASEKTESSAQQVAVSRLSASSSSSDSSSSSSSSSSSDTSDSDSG

The test has as its target BRD2 (mouse (endogenous in CH12F3-2A)) (UniProt Q7JJ13). Description: co-IP; nuclear extracts from CIT-activated CH12F3-2A cells immunoprecipitated with BRD2 or BRD4 antibodies or control rabbit IgG (Dynabeads Protein G); Western blot of the precipitated proteins. In general terms: In western blotting, separated proteins are transferred to a membrane and probed.

Results are given in words; binding and its absence hold for the method and conditions named. In cells and extracts the contact can be indirect. Some binding calls cover weakened binding; strength is not graded here.

B1: CTCF (protein, UniProt Q61164 1-736)
chain: MEGEAVEAIVEESETFIKGKERKTYQRRREGGQEEDACHLPQNQTDGGEVVQDVNSSVQMVMMEQLDPTLLQMKTEVMEGTVAPEAEAAVDDTQIITLQVVNMEEQPINIGELQLVQVPVPVTVPVATTSVEELQGAYENEVSKEGLAESEPMICHTLPLPEGFQVVKVGANGEVETLEQGELPPQEDSSWQKDPDYQPPAKKTKKTKKSKLRYTEEGKDVDVSVYDFEEEQQEGLLSEVNAEKVVGNMKPPKPTKIKKKGVKKTFQCELCSYTCPRRSNLDRHMKSHTDERPHKCHLCGRAFRTVTLLRNHLNTHTGTRPHKCPDCDMAFVTSGELVRHRRYKHTHEKPFKCSMCDYASVEVSKLKRHIRSHTGERPFQCSLCSYASRDTYKLKRHMRTHSGEKPYECYICHARFTQSGTMKMHILQKHTENVAKFHCPHCDTVIARKSDLGVHLRKQHSYIEQGKKCRYCDAVFHERYALIQHQKSHKNEKRFKCDQCDYACRQERHMIMHKRTHTGEKPYACSHCDKTFRQKQLLDMHFKRYHDPNFVPAAFVCSKCGKTFTRRNTMARHADNCAGPDGVEGENGGETKKSKRGRKRKMRSKKEDSSDSEENAEPDLDDNEEEEEPAVEIEPEPEPQPQPPPPPQPVAPAPPPAKKRRGRPPGRTNQPKQNQPTAIIQVEDQNTGAIENIIVEVKKEPDAEPAEGEEEEAQAATTDAPNGDLTPEMILSMMDR
As for B1, the binding result was “binds”.
